Consider three molecules from PMC4691241, “Activation of ULK Kinase and Autophagy by GABARAP Trafficking from the Centrosome Is Regulated by WAC and GM130” (Molecular Cell, 2015).

Chains of the proteins cited; added tags and fusions are not shown. Residues count along the entry.
UniProt P60520: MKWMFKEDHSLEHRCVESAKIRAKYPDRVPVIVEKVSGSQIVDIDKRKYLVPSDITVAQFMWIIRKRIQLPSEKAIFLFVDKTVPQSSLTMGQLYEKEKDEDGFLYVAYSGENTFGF
UniProt Q9BXW4, residues 1-126: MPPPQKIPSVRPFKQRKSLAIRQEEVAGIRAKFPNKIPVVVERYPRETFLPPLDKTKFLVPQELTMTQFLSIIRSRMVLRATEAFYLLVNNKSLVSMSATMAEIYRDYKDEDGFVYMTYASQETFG

No constants are given. Whether binding was seen depends on the method and setting. Binding seen in cells or lysates may run through a third protein. Some results given as binding are weak or reduced against the parent protein; the word gives no strength. For part of these data: Sequences can lack the tags named with a protein.

One experiment addresses EGFP-GATE-16 (UniProt P60520). In words: co-IP; Myc-WAC co-expressed with EGFP or EGFP-Atg8 homologs, GFP-TRAP, immunoblot. On the technique in general: Immunoblotting shows a protein as a band on a membrane.
Another experiment concerns the target EGFP-LC3A (UniProt Q9H492). The description is as above.
Another experiment deals with EGFP-LC3C (UniProt Q9BXW4). Described as above.
Another experiment addresses T1, 3xHA-GM130 (human) (UniProt Q08379).
T1 sequence: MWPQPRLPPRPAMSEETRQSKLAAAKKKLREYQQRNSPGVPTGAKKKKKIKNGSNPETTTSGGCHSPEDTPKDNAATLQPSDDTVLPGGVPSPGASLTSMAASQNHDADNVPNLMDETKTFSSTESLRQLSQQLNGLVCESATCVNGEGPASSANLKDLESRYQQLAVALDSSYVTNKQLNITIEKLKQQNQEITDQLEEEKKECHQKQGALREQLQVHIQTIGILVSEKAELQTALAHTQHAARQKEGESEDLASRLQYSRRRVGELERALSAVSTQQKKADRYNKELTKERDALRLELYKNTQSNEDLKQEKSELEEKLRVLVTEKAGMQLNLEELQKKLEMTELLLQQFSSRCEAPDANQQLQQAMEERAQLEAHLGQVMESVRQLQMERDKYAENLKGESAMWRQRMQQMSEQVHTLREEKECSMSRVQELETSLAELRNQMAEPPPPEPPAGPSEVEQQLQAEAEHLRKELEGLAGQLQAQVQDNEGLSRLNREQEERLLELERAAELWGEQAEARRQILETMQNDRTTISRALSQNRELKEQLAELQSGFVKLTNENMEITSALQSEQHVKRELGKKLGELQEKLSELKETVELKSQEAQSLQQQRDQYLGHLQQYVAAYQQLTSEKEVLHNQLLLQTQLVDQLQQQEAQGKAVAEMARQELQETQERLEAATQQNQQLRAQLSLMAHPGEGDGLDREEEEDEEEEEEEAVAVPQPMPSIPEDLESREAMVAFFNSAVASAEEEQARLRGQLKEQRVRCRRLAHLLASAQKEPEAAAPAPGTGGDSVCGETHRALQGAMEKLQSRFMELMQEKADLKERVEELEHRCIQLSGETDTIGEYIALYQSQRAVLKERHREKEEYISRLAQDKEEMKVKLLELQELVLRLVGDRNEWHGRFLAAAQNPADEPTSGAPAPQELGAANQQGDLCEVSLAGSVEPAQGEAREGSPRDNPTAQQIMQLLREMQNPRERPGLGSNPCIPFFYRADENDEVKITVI
Kind of experiment: co-IP; HEK293A cells co-transfected with 3xHA-GM130 and EGFP-WAC constructs, immunoprecipitated with anti-HA, immunoblot.

Experiment [1] concerns the target T2, HA-GM130 aa774–1,002 (human) (UniProt Q08379).
T2 sequence: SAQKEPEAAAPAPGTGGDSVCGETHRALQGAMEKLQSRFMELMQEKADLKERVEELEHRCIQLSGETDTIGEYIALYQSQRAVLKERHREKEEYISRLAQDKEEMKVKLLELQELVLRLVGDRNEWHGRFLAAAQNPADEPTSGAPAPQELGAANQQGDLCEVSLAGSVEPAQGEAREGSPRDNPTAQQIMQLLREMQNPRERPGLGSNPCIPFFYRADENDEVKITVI
In words: co-IP; HEK293A lysates with EGFP-WAC FL or ΔCC mixed with lysates with HA-GM130 fragments, immunoprecipitated with anti-HA, immunoblot.

Regarding Myc-WAC (from UniProt Q9BTA9 1-647), the binding entry in the experiment with EGFP-GATE-16, in the experiment with EGFP-LC3A and with EGFP-LC3C was “binds” in each case.

B1: GST-WAC FL (natural protein, human, UniProt Q9BTA9 1-647, looked up)
chain: MVMYARKQQRLSDGCHDRRGDSQPYQALKYSSKSHPSSGDHRHEKMRDAGDPSPPNKMLRRSDSPENKYSDSTGHSKAKNVHTHRVRERDGGTSYSPQENSHNHSALHSSNSHSSNPSNNPSKTSDAPYDSADDWSEHISSSGKKYYYNCRTEVSQWEKPKEWLEREQRQKEANKMAVNSFPKDRDYRREVMQATATSGFASGMEDKHSSDASSLLPQNILSQTSRHNDRDYRLPRAETHSSSTPVQHPIKPVVHPTATPSTVPSSPFTLQSDHQPKKSFDANGASTLSKLPTPTSSVPAQKTERKESTSGDKPVSHSCTTPSTSSASGLNPTSAPPTSASAVPVSPVPQSPIPPLLQDPNLLRQLLPALQATLQLNNSNVDISKINEVLTAAVTQASLQSIIHKFLTAGPSAFNITSLISQAAQLSTQAQPSNQSPMSLTSDASSPRSYVSPRISTPQTNTVPIKPLISTPPVSSQPKVSTPVVKQGPVSQSATQQPVTADKQQGHEPVSPRSLQRSSSQRSPSPGPNHTSNSSNASNATVVPQNSSARSTCSLTPALAAHFSENLIKHVQGWPADHAEKQASRLREEAHNMGTIHMSEICTELKNLRSLVRVCEIQATLREQRILFLRQQIKELEKLKNQNSFMV
notes: human WAC isoform 1, full length; also called recombinant GST-WAC; source: recombinant
B1: the binding result (in the experiment with 3xHA-GM130 (human); in experiment [1]) was “binds” each time.

B2: EGFP-WAC aa1–610 (ΔCC) (domain or fragment, UniProt Q9BTA9 1-610)
chain: MVMYARKQQRLSDGCHDRRGDSQPYQALKYSSKSHPSSGDHRHEKMRDAGDPSPPNKMLRRSDSPENKYSDSTGHSKAKNVHTHRVRERDGGTSYSPQENSHNHSALHSSNSHSSNPSNNPSKTSDAPYDSADDWSEHISSSGKKYYYNCRTEVSQWEKPKEWLEREQRQKEANKMAVNSFPKDRDYRREVMQATATSGFASGMEDKHSSDASSLLPQNILSQTSRHNDRDYRLPRAETHSSSTPVQHPIKPVVHPTATPSTVPSSPFTLQSDHQPKKSFDANGASTLSKLPTPTSSVPAQKTERKESTSGDKPVSHSCTTPSTSSASGLNPTSAPPTSASAVPVSPVPQSPIPPLLQDPNLLRQLLPALQATLQLNNSNVDISKINEVLTAAVTQASLQSIIHKFLTAGPSAFNITSLISQAAQLSTQAQPSNQSPMSLTSDASSPRSYVSPRISTPQTNTVPIKPLISTPPVSSQPKVSTPVVKQGPVSQSATQQPVTADKQQGHEPVSPRSLQRSSSQRSPSPGPNHTSNSSNASNATVVPQNSSARSTCSLTPALAAHFSENLIKHVQGWPADHAEKQASRLREEAHNMGTIHMSEICTELKNLRS
Take B2: the binding entry in experiment [1] is listed as “no binding”.
